Data on 1 substance can be found in publication PMC5167405.

Amino acid sequences for entries named in this document (tags omitted).
UniProt P42224: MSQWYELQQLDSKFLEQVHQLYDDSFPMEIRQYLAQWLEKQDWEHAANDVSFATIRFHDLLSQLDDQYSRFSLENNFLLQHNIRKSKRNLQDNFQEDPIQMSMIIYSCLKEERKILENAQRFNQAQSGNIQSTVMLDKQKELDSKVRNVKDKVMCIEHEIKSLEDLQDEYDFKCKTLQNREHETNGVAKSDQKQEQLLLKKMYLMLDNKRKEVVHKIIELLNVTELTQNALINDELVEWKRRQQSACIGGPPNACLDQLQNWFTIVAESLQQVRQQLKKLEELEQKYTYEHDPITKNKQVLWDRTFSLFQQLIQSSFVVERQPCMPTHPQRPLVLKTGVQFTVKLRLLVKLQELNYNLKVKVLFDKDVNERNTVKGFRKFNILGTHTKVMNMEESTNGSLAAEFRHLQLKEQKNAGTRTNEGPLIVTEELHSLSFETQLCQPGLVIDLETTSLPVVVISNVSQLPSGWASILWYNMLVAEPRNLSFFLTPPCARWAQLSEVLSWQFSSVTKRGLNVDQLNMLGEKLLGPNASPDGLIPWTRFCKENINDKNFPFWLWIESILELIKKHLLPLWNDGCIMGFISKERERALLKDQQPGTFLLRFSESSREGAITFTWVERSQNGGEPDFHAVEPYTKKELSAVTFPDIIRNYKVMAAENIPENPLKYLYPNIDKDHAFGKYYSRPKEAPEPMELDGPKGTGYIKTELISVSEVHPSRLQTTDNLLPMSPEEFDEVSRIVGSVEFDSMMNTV

No constants are given. Whether binding was seen depends on the method and setting. Binding seen in cells or lysates may run through a third protein. Sequences can lack the tags named with a protein.

The target in the assay is T1, HA-tagged IKKα (exogenous, wild type) (human (cDNA from HeLa cells)) (UniProt O15111).
T1 sequence: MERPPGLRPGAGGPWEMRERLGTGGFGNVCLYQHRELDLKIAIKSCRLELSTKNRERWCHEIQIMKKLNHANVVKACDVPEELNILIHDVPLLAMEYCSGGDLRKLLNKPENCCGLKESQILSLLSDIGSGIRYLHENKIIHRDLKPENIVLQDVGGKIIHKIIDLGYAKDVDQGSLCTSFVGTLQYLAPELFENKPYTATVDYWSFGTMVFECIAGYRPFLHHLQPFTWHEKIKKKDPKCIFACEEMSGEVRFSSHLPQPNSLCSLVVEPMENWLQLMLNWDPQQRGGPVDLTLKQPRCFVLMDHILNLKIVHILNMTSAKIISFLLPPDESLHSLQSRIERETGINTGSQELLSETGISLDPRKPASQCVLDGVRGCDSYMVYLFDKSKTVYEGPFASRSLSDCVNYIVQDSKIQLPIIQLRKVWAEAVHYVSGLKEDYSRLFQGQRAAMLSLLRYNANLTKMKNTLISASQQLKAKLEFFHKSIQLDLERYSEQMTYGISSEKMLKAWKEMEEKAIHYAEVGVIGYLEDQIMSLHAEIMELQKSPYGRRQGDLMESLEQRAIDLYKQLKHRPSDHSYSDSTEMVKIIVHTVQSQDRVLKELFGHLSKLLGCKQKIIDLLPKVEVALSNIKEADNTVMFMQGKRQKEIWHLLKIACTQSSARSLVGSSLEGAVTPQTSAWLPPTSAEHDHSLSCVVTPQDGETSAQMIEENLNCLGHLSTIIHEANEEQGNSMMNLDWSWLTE
As to the kind of experiment: co-IP; anti-HA antibody beads, lysate of HeLa cells transfected with HA-tagged IKKα, overnight at 4°C, 5 washes PBS-0.1% Tween 20; cells with or without poly I:C for 4 h; blot with anti-STAT1.

With “signal transducer and activator of transcription-1 (STAT1), endogenous (from UniProt P42224 1-750)”, the binding result is on record as “no binding”.
